Measured values from PubChem BioAssay AID192 (DTP/NCI, 2004).
The list does not hold the whole screen: its compounds were picked by chemical class. Other doses and runs of a compound may be missing. T/C gives the treated animals as a percentage of the vehicle group. Some entries give survivors of the animals treated and no T/C: the source files T/C as zero there, which appears to mark a toxic dose or a test without result, not a measured value. Some survivor counts are full or nearly so, which does not show that the dose was tolerated: survival well below the control is almost never listed, so the zero probably covers shortened survival too. Counts of survivors are from the toxicity check (mostly the fifth day) where no day follows; animals may have died later. Schedule codes are those of the source, taken here to give the interval after Q, in days (D) or hours (H), and the number of doses after X. For survival time, this PubChem deposit counts one and a half times the control or more as active, and values a quarter to a half above the control carry no call in these data; other NCI protocols may use other cut-offs. Additions like (4×) stand for listed records that agree. Some entries were tested several times; the results are listed from low to high. Some T/C values are followed by the survivors on the day toxicity was checked, most often the fifth; without a count or a note in brackets, all were alive then.

Tested on: BDF1 mice, B16 melanoma ip, median survival T/C
Experiment: NCI In Vivo Anticancer Drug Screen. Data for tumor model B16 Melanoma (intraperitoneal) in B6D2F1 (BDF1) mice
Conditions: T/C endpoint: median survival time, higher T/C = longer survival
How it was run: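 Antitumor activity is assessed in mice bearing a transplanted tumor, with survival or tumor size compared against vehicle-dosed controls and expressed as T/C.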

[1] = dose: 6.25 mg/kg/injection, schedule: Q01DX009 (ip), vehicle: Klucel (hydroxypropylcellulose) (HPC)
[2] = dose: 12.5 mg/kg/injection, schedule: Q01DX009 (ip), vehicle: Klucel (hydroxypropylcellulose) (HPC)
[3] = dose: 25.0 mg/kg/injection, schedule: Q01DX009 (ip), vehicle: Klucel (hydroxypropylcellulose) (HPC)
[4] = dose: 50.0 mg/kg/injection, schedule: Q01DX009 (ip), vehicle: Klucel (hydroxypropylcellulose) (HPC)
[5] = dose: 100.0 mg/kg/injection, schedule: Q01DX009 (ip), vehicle: Klucel (hydroxypropylcellulose) (HPC)
[6] = dose: 25.0 mg/kg/injection, schedule: Q01DX009 (ip), vehicle: saline with Tween-80
[7] = dose: 50.0 mg/kg/injection, schedule: Q01DX009 (ip), vehicle: saline with Tween-80
[8] = dose: 100.0 mg/kg/injection, schedule: Q01DX009 (ip), vehicle: saline with Tween-80

With `NP(=O)(N(CCCl)CCCl)N1CC1` (stereo unspecified) the T/C (dose: 6.25 mg/kg/injection, schedule: Q01DX009 (ip), vehicle: saline) was 110 % of control [7 of 10 alive], the T/C (dose: 12.5 mg/kg/injection, schedule: Q01DX009 (ip), vehicle: saline) was 116 % of control [8 of 10 alive] and the T/C (dose: 25.0 mg/kg/injection, schedule: Q01DX001 (ip), vehicle: saline) was 108 % of control. The T/C (dose: 25.0 mg/kg/injection, schedule: Q01DX009 (ip), vehicle: saline) was 96 % of control [9 of 10 alive], the T/C (dose: 25.0 mg/kg/injection, schedule: Q04DX003 (ip), vehicle: saline) was 136 % of control and the T/C (dose: 25.0 mg/kg/injection, schedule: Q08DX002 (ip), vehicle: saline) was 113 % of control. The T/C (dose: 50.0 mg/kg/injection, schedule: Q01DX001 (ip), vehicle: saline) was 123 % of control, the survivor count (dose: 50.0 mg/kg/injection, schedule: Q01DX009 (ip), vehicle: saline) was 6 of 10 and the survivor count (dose: 50.0 mg/kg/injection, schedule: Q04DX003 (ip), vehicle: saline) was 10 of 10. For the same compound, the T/C (dose: 50.0 mg/kg/injection, schedule: Q08DX002 (ip), vehicle: saline) was 134 % of control, the T/C (dose: 100.0 mg/kg/injection, schedule: Q01DX001 (ip), vehicle: saline) was 123 % of control and the survivor count (dose: 100.0 mg/kg/injection, schedule: Q01DX009 (ip), vehicle: saline) was 3 of 10. For the same compound, the survivor count (dose: 100.0 mg/kg/injection, schedule: Q04DX003 (ip), vehicle: saline) was 4 of 10, the survivor count (dose: 100.0 mg/kg/injection, schedule: Q08DX002 (ip), vehicle: saline) was 8 of 10 and the survivor count (dose: 200.0 mg/kg/injection, schedule: Q01DX001 (ip), vehicle: saline) was 8 of 10. The survivor count (dose: 200.0 mg/kg/injection, schedule: Q04DX003 (ip), vehicle: saline) was 1 of 10, the survivor count (dose: 200.0 mg/kg/injection, schedule: Q08DX002 (ip), vehicle: saline) was 2 of 10 and the survivor count (dose: 400.0 mg/kg/injection, schedule: Q01DX001 (ip), vehicle: saline) was 6 of 10. The survivor count (dose: 400.0 mg/kg/injection, schedule: Q04DX003 (ip), vehicle: saline) was 0 of 10 and the survivor count (dose: 400.0 mg/kg/injection, schedule: Q08DX002 (ip), vehicle: saline) was 0 of 10.

With `ClC1(Cl)SC(Cl)(Cl)C(Cl)(Cl)C1(Cl)Cl` the T/C [1] was 100 % of control [9 of 10 alive], the T/C [2] was 102 % of control [9 of 10 alive] and the T/C [3] was 94 % of control [9 of 10 alive]. The T/C [4] was 100 % of control [9 of 10 alive] and the survivor count [5] was 7 of 10.

For `CC(=O)SCC(Cl)Cl`, the T/C [6] was 100 % of control, the T/C [7] was 104 % of control and the T/C [8] was 116 % of control.

With `CCCC1OP(N)(=O)OCC1CC` (stereo unspecified) the T/C [8] was 100 % of control, the T/C (dose: 200.0 mg/kg/injection, schedule: Q01DX009 (ip), vehicle: saline with Tween-80) was 96 % of control and the T/C (dose: 400.0 mg/kg/injection, schedule: Q01DX009 (ip), vehicle: saline with Tween-80) was 98 % of control.

For `CCCNC(=O)c1ccc(N(CCCl)CCCl)cc1`, the T/C [1] was 87 % of control [6 of 8 alive], the T/C [2] was 101 % of control (2×) and the T/C [3] was 101 and 104 % of control. For the same compound, the T/C [4] was 96 and 101 % of control, the T/C [5] was 101 [7 of 8 alive] and 109 % of control and the survivor count (dose: 200.0 mg/kg/injection, schedule: Q01DX009 (ip), vehicle: Klucel (hydroxypropylcellulose) (HPC)) was 0 of 8.

In the case of `CC1CN1P(=O)(Nc1ccccn1)N1CC1C` (stereo unspecified), the T/C (dose: 12.5 mg/kg/injection, schedule: Q01DX009 (ip), vehicle: saline with Tween-80) is reported as 97 % of control, the T/C [6] is reported as 105 % of control [9 of 10 alive] and the T/C (dose: 25.0 mg/kg/injection, schedule: Q04DX003 (ip), vehicle: saline with Tween-80) is reported as 98 % of control. For the same compound, the T/C [7] was 100 % of control, the T/C (dose: 50.0 mg/kg/injection, schedule: Q04DX003 (ip), vehicle: saline with Tween-80) was 138 % of control and the survivor count [8] was 10 of 10. For the same compound, the T/C (dose: 100.0 mg/kg/injection, schedule: Q04DX003 (ip), vehicle: saline with Tween-80) was 95 and 119 % of control, the survivor count (dose: 200.0 mg/kg/injection, schedule: Q04DX003 (ip), vehicle: saline with Tween-80) was 9 of 10 and the survivor count (dose: 400.0 mg/kg/injection, schedule: Q04DX003 (ip), vehicle: saline with Tween-80) was 0 of 10.
